This is an account of results in the supplement of paper PMC4749390.

Each structure is given as a SMILES string. Values joined by “and” are separate entries in the source; they are usually repeats but may differ in a detail not shown here. Equal values may be shown once. Where a name gives a salt, the structure may show the parent alone. The list shows a part of the results. Repeats in this data set agree poorly, so a single value says little.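 JEG3 cells stably carry tetracycline-induced wild-type human LRH-1, a heavily sumoylated nuclear receptor. APOC3 and MUC1 are SUMO-sensitive transcripts, raised by SUMO-less LRH-1 or UBC9 knockdown, measured by RT-qPCR against TBP and DMSO controls. A robust Z-score above +2 or below -2 marked a primary hit before toxicity and TBP filtering.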

This test relates to JEG3 expressing hLRH-1. Description: MUC1 transcript change (ddCt vs TBP and DMSO), Z-score over library; higher = higher MUC1 expression. The settings on record: 10 µM; time (hr): 24.
Turning to `Clc1ccc(C(c2ccccc2Cl)C(Cl)Cl)cc1` (stereo unspecified) [mitotane], the “MUC1 transcript change (Z-score)” value stood at 0.775.
Take `CCCc1nc2c(C)cc(-c3nc4ccccc4n3C)cc2n1Cc1ccc(-c2ccccc2C(=O)O)cc1` [telmisartan]: the “MUC1 transcript change (Z-score)” value came to 0.607.
As for `CCCNCC(O)COc1ccccc1C(=O)CCc1ccccc1` (stereo unspecified) [propafenone hydrochloride], the “MUC1 transcript change (Z-score)” value was determined as 0.68.
Then `CCCN(CCC)CCc1cccc2c1CC(=O)N2` [ropinirole hydrochloride], with 1.18; and `CC(C)/N=c1\cc2n(-c3ccc(Cl)cc3)c3ccccc3nc-2cc1Nc1ccc(Cl)cc1` [clofazimine], with 0.141; and `CC1(C)S[C@@H]2[C@H](N3C(=O)[C@@H](c4ccccc4)NC3(C)C)C(=O)N2[C@H]1C(=O)O` [hetacillin potassium], with 0.715.
Then `CO[C@H]1C[C@H](O[C@H]2[C@H](C)[C@@H](OC3O[C@H](C)C[C@H](N(C)C)[C@H]3O)[C@@H](C)C[C@]3(CO3)C(=O)[C@H](C)[C@@H](O)[C@@H](C)[C@@H](C)OC(=O)[C@@H]2C)O[C@@H](C)[C@@H]1O` (stereo partly specified) [oleandomycin phosphate], with -0.275; and `NC[C@H]1CC[C@H](C(=O)O)CC1` [tranexamic acid], with -0.377; and `Cc1nc(-c2ccc(OCC(C)C)c(C#N)c2)sc1C(=O)O` [febuxostat], with 1.57.
As to `CC1(O)CCC(C(C)(C)O)CC1` (stereo unspecified) [terpene hydrate], the “MUC1 transcript change (Z-score)” value turned out to be 0.325.
Then `CN(C)CCC[C@@]1(c2ccc(F)cc2)OCc2cc(C#N)ccc21` [escitalopram oxalate], with 0.954 and 0.714; and `CCCCCCc1ccc(O)cc1O.Nc1c2ccccc2nc2ccccc12` [acrisorcin], with 3.15.
Consider `Cc1nc(Nc2ncc(C(=O)Nc3c(C)cccc3Cl)s2)cc(N2CCN(CCO)CC2)n1` [dasatinib], for which the “MUC1 transcript change (Z-score)” value was -2.07.
As for `CCN(CC)CCOC(=O)C(c1ccccc1)c1ccccc1` [adiphenine hydrochloride], the “MUC1 transcript change (Z-score)” value was 0.075.
Then `O=C(c1ccc(F)cc1)C1CCN(CCn2c(=O)[nH]c3ccccc3c2=O)CC1` [Ketanserin tartrate], with 0.488; and `N[C@H](Cc1cc(I)c(Oc2ccc(O)c(I)c2)c(I)c1)C(=O)O` [liothyronine], with 0.609; and `O=S(=O)(O)CCSSCCS(=O)(=O)O` [dimesna], with 0.765.
Consider `COc1ccc(-c2ccc3cc(C(=O)O)ccc3c2)cc1C12CC3CC(CC(C3)C1)C2` [adapalene], for which the “MUC1 transcript change (Z-score)” value was -1.46.
Then `C[C@@H]1CC(=O)NN=C1c1ccc(NN=C(C#N)C#N)cc1` [levosimendan], with -0.939; and `Cc1cc(NS(=O)(=O)c2ccc(N)cc2)no1` [sulfamethoxazole], with -0.86.
For `O=C1OCCN1/N=C/c1ccc([N+](=O)[O-])o1` [furazolidone], the “MUC1 transcript change (Z-score)” value worked out at 0.524.
Then `CCCCOc1ccc(OCCCN2CCOCC2)cc1` [pramoxine hydrochloride], with 0.0979.
For the compound `CC1OC1P(=O)(O)O` (stereo unspecified) [fosphomycin], the “MUC1 transcript change (Z-score)” value stood at 1.34.
With `CC(C)[C@H]1CC[C@H](C(=O)N[C@H](Cc2ccccc2)C(=O)O)CC1` [nateglinide], the “MUC1 transcript change (Z-score)” value is 0.489.
In the case of `Cc1ccc(C(=O)Nc2ccc(S(=O)(=O)O)c3cc(S(=O)(=O)O)cc(S(=O)(=O)O)c23)cc1NC(=O)c1cccc(NC(=O)Nc2cccc(C(=O)Nc3cc(C(=O)Nc4ccc(S(=O)(=O)O)c5cc(S(=O)(=O)O)cc(S(=O)(=O)O)c45)ccc3C)c2)c1` [Suramin hexasodium], the “MUC1 transcript change (Z-score)” value was 0.524.
Then `Cc1nnc(SCC2=C(C(=O)O)N3C(=O)[C@@H](NC(=O)Cn4cnnn4)[C@H]3SC2)s1` [cefazolin sodium], with 0.418; and `CC(=O)CCCCn1c(=O)c2c(ncn2C)n(C)c1=O` [Pentoxifylline], with 0.615.
For `O=C(O)[C@H](O)[C@@H](O)[C@H](O)[C@H](O)CO` [sodium gluconate], the “MUC1 transcript change (Z-score)” value worked out at 0.428.
As to `NS(=O)(=O)c1cc2c(cc1Cl)NC(C(Cl)Cl)NS2(=O)=O` (stereo unspecified) [trichlormethiazide], the “MUC1 transcript change (Z-score)” value is -0.764.
Regarding `O=C1Cc2cc(CCN3CCN(c4nsc5ccccc45)CC3)c(Cl)cc2N1` [ziprasidone mesylate], the “MUC1 transcript change (Z-score)” value is 0.135.
Then `CCC(C)(C)c1ccc(CC(C)CN2C[C@@H](C)O[C@@H](C)C2)cc1` (stereo partly specified) [amorolfine hydrochloride], with 0.433.
As for `CC(=O)OCC1=C(C(=O)O)N2C(=O)[C@@H](NC(=O)CSc3ccncc3)[C@H]2SC1` [cephapirin sodium], the “MUC1 transcript change (Z-score)” value came to 0.307.
Then `CC[C@]12CCCN3CCc4c(n(c5ccccc45)[C@@](O)(C(=O)OC)C1)[C@@H]32` [vincamine], with -0.572; and `O=C(CCCN1CCC(O)(c2ccc(Br)cc2)CC1)c1ccc(F)cc1` [bromperidol], with 0.943.
`C[C@@H]1CC2C3C[C@H](F)C4=CC(=O)C=C[C@]4(C)[C@@]3(F)[C@@H](O)C[C@]2(C)[C@@]1(O)C(=O)COC(=O)C(C)(C)C` (stereo partly specified) [flumethazone pivalate]: the “MUC1 transcript change (Z-score)” value is -0.567.
As for `Cc1ccc(C(=O)c2ccc(CC(=O)O)n2C)cc1` [tolmetin sodium], the “MUC1 transcript change (Z-score)” value turned out to be 0.123.
In the case of `C=CCCCCCCCCC(=O)O` [undecylenic acid], the “MUC1 transcript change (Z-score)” value is 0.787 and 1.13.
For the compound `C/N=C(/NC#N)NCCSCc1[nH]cnc1C` [Cimetidine], the “MUC1 transcript change (Z-score)” value came to 0.871.
As for `NC(=O)c1cccnc1` [niacinamide], the “MUC1 transcript change (Z-score)” value is -1.53.
Then `Nc1nccs1` [aminothiazole], with 1.3.
As to `N=C(N)NCCN1CCCCCCC1` [guanethidine sulfate], the “MUC1 transcript change (Z-score)” value worked out at 0.445.
